Assay results from PMC6445129.
No constants are given. Whether binding was seen depends on the method and setting. Binding seen in cells or lysates may run through a third protein. For some assays here: A result given as binding can be weak or reduced; the word gives no strength.

Protein sequences, listed by entry. Tags and fused reporters are not part of them. Lines headed by an entry give the natural chain unless they say otherwise; changes in a name come on top.
UniProt Q9Y2K7: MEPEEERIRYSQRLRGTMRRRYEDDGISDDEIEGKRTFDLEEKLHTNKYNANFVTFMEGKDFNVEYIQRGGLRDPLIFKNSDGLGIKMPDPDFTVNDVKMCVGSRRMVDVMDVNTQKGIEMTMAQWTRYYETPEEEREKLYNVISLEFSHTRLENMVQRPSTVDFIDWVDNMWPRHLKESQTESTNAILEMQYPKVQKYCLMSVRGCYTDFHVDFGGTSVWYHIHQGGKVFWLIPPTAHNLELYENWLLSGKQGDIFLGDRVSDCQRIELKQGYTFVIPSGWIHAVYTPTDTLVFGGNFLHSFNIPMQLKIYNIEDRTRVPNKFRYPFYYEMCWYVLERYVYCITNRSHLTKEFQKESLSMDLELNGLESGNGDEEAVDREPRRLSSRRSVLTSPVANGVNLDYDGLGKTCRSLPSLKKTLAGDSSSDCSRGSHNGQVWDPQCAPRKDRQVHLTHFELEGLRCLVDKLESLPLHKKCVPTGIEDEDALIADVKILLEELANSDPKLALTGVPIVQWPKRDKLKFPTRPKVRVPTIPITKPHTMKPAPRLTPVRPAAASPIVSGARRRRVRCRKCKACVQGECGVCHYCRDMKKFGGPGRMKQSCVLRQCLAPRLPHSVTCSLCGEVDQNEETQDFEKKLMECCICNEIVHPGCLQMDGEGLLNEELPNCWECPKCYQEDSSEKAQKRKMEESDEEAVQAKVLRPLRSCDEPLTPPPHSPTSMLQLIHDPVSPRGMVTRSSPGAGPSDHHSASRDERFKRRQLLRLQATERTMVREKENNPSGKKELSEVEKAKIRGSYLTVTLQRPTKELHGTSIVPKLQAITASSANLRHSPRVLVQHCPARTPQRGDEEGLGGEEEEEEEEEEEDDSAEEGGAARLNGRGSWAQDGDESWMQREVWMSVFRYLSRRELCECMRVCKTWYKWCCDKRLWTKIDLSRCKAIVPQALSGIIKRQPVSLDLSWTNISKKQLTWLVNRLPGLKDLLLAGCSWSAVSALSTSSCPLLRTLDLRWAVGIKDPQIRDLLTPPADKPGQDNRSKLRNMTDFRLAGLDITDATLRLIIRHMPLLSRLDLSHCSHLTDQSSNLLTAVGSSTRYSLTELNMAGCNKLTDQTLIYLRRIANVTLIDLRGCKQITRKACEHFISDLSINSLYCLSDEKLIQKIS
UniProt P13010: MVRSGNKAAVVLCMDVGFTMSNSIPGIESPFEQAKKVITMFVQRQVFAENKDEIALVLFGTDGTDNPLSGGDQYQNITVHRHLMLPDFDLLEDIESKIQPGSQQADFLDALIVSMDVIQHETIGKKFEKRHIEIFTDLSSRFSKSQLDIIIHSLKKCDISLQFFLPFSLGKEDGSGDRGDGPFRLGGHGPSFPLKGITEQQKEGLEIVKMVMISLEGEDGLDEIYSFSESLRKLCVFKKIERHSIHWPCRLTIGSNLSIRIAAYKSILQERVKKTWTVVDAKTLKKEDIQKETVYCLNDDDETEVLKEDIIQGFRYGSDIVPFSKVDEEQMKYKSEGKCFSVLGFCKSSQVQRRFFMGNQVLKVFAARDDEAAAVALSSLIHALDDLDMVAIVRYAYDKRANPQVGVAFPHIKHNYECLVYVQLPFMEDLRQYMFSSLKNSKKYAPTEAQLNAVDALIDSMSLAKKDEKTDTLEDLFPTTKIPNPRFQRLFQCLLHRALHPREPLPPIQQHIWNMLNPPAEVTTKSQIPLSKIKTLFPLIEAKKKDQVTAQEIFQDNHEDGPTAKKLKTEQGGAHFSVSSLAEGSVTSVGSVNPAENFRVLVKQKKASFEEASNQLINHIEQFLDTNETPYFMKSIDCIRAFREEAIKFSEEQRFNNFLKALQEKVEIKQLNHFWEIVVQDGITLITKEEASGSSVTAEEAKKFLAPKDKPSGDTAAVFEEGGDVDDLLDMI

What was measured:
EGFP-N782ΔJmjC (human) = EGFP-N782ΔJmjC (human) (UniProt Q9Y2K7); assay: co-IP; rabbit anti-GFP on protein A magnetic beads, lysates of keratinocytes expressing EGFP-N782 or its deletion mutants; Western blot of XRCC5
EGFP-N782ΔCXXC (human) = EGFP-N782ΔCXXC (human) (UniProt Q9Y2K7); assay: as above

- binding (EGFP-N782ΔJmjC (human)): binds
- binding (EGFP-N782ΔCXXC (human)): no binding
Substance: X-ray repair cross-complementing protein 5 (XRCC5), endogenous (from UniProt P13010 1-732)
